# Melanoma cell counts after drug treatment

Values as published with doi:10.1371/journal.pone.0140310, rounded.

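Human melanoma cell lines in 1,536-well plates were treated with two drugs together for 72 h, then fixed, stained and imaged. The read-out is cell count (nuclei) in % of the DMSO control; lower values mean stronger growth inhibition or killing. Concentrations were fixed for each drug; these are the lower of two levels, a fifth of the higher. No replicate spread is given; individual values may be noisy.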
Only some of the drugs and lines screened are listed, without regard to their results.

Drugs:
tozasertib (0.006 µM): Cc1cc(Nc2cc(N3CCN(C)CC3)nc(Sc3ccc(NC(=O)C4CC4)cc3)n2)n[nH]1
CX-4945 (0.4 µM): O=C(O)c1ccc2c(c1)nc(Nc1cccc(Cl)c1)c1ccncc12
vorinostat (0.08 µM): O=C(CCCCCCC(=O)Nc1ccccc1)NO
MK-2206 (0.4 µM): NC1(c2ccc(-c3nc4ccn5c(=O)[nH]nc5c4cc3-c3ccccc3)cc2)CCC1
lapatinib (0.8 µM): CS(=O)(=O)CCNCc1ccc(-c2ccc3ncnc(Nc4ccc(OCc5cccc(F)c5)c(Cl)c4)c3c2)o1
erlotinib (0.8 µM): C#Cc1cccc(Nc2ncnc3cc(OCCOC)c(OCCOC)cc23)c1
PLX4720 (0.08 µM): CCCS(=O)(=O)Nc1ccc(F)c(C(=O)c2c[nH]c3ncc(Cl)cc23)c1F
STA-4783 (0.006 µM): CN(NC(=O)CC(=O)NN(C)C(=S)c1ccccc1)C(=S)c1ccccc1
BI-78D3 (0.2 µM): O=c1[nH]nc(Sc2ncc([N+](=O)[O-])s2)n1-c1ccc2c(c1)OCCO2
AZD7762 (0.02 µM): NC(=O)Nc1cc(-c2cccc(F)c2)sc1C(=O)N[C@H]1CCCNC1
MK-1775 (0.02 µM): C=CCn1c(=O)c2cnc(Nc3ccc(N4CCN(C)CC4)cc3)nc2n1-c1cccc(C(C)(C)O)n1
PF-04217903 (1 µM): OCCn1cc(-c2cnc3nnn(Cc4ccc5ncccc5c4)c3n2)cn1

Pair	C32	A375	A2058	A101D
AZD7762 + PLX4720	84.2	43.5	115	84.6
AZD7762 + erlotinib	104	38.9	99.6	76.1
tozasertib + AZD7762	71.6	44.4	108	84.2
vorinostat + lapatinib	101	113	119	94.0
BI-78D3 + AZD7762	116	59.3	122	71.6
lapatinib + PLX4720	108	86.1	99.2	88.9
MK-1775 + CX-4945	105	72.2	89.0	73.6
PF-04217903 + erlotinib	94.8	82.0	93.4	96.1
tozasertib + PF-04217903	86.9	78.2	86.8	90.5
AZD7762 + MK-2206	112	70.3	110	81.1
PLX4720 + MK-1775	85.2	55.2	95.9	71.7
PF-04217903 + MK-1775	100	76.6	101	86.6
BI-78D3 + STA-4783	96.8	47.4	79.2	84.1
erlotinib + STA-4783	108	32.9	95.1	75.6
CX-4945 + AZD7762	85.1	85.1	99.2	98.0
tozasertib + MK-1775	91.2	76.0	115	80.6
vorinostat + BI-78D3	106	120	105	106
PLX4720 + PF-04217903	87.0	67.3	94.8	103
MK-2206 + PF-04217903	98.3	90.0	92.5	91.7
PLX4720 + STA-4783	66.4	21.1	77.6	74.4
MK-1775 + MK-2206	104	79.3	76.6	70.2
CX-4945 + PF-04217903	102	94.4	98.6	115
vorinostat + MK-2206	104	101	95.3	95.5
erlotinib + MK-1775	113	63.0	85.1	68.5
BI-78D3 + MK-1775	85.6	72.5	90.2	81.9
STA-4783 + MK-2206	64.2	22.7	67.4	85.4
vorinostat + CX-4945	95.4	3.4	102	114
MK-1775 + lapatinib	92.1	72.6	95.6	73.4
STA-4783 + tozasertib	64.8	19.1	66.4	66.6